PubChem BioAssay AID652243 – Drosophila RNAi Screening Center – 2013

Screen: 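Knock-downs that decrease or increase androgen receptor reporter signal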 (primary screen)
Cells: Drosophila S2R+ cells
Reagents: long dsRNA against Drosophila genes
Timing: 72 h (48 h, then 24 h hormone)
Treatment: synthetic androgen R1881 at 10 nM for 24 h
Measurement: 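Per-well raw luminescence of the androgen-driven firefly reporter and of the Renilla control, two replicates each, without normalisation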
Scale: firefly reporter light: higher = more light from androgen-responsive reporter; Renilla control light: higher = more constitutive control signal (cell number, transfection)
Call rule: 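Across duplicate plates, a knock-down whose log firefly/Renilla ratio shifted a set fold down or up from the GFP/LacZ control mean was a hit; the downward cut appears as both 1.5 and 3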
Calls: active = hit: reporter lowered or raised; inactive = no hit
The deposit covers about 24,000 reagents; shown is an unselected part of those that have a named target and a result. Over the whole deposit, 246 (1%) got an active call. 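Plates not normalised; calls are printed but the firefly/Renilla ratio behind them is not deposited; fold cut for lowering reported inconsistently.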 The raw values are shown without normalisation. Reagent sequences are not shown. Not given: the amount of reagent.

Gene | dsRNA | firefly reporter light, replicate 1 | firefly reporter light, replicate 2 | Renilla control light, replicate 1 | Renilla control light, replicate 2 | activity call
Prp5 | DRSC19975 | 6.60e5 | 5.71e5 | 3.67e6 | 3.48e6 | inactive
Prp5 | DRSC27434 | 3.14e5 | 3.44e5 | 6.97e5 | 7.20e5 | inactive
Ublcp1 | DRSC14149 | 52831 | 72022 | 6.18e5 | 6.68e5 | inactive
Ublcp1 | DRSC28057 | 5.11e5 | 4.89e5 | 1.59e6 | 1.55e6 | inactive
Sec20 | DRSC12295 | 58359 | 31865 | 1.87e6 | 1.12e6 | inactive
Sec20 | DRSC29886 | 5.82e5 | 5.14e5 | 9.84e5 | 1.02e6 | inactive
Cph | DRSC25005 | 6.39e5 | 8.72e5 | 8.96e5 | 1.28e6 | inactive
Cph | DRSC37513 | 8.66e5 | 8.93e5 | 2.13e6 | 1.46e6 | inactive
Sec24CD | DRSC00300 | 8.38e5 | 8.85e5 | 3.98e6 | 1.50e6 | inactive
CG3701 (retired record) | DRSC04408 | 2.15e5 | 2.61e5 | 8.81e5 | 1.25e6 | inactive
CG3701 (retired record) | DRSC04409 | 84548 | 90151 | 6.91e5 | 1.22e6 | inactive
nsl1 | DRSC15625 | 96462 | 90664 | 25935 | 13250 | inactive
Opbp | DRSC04966 | 2.80e5 | 4.14e5 | 1.59e6 | 1.83e6 | inactive
Opbp | DRSC28850 | 5.54e5 | 4.93e5 | 1.24e6 | 1.05e6 | inactive
CG34447 | DRSC00741 | 82464 | 1.24e5 | 5.40e5 | 8.43e5 | inactive
phtf | DRSC05023 | 7.70e5 | 9.34e5 | 1.51e6 | 1.78e6 | inactive
phtf | DRSC28441 | 4.46e5 | 6.45e5 | 3.27e5 | 1.10e6 | inactive
rdx | DRSC16580 | 1.18e5 | 1.88e5 | 2.12e6 | 2.30e6 | inactive
rdx | DRSC23120 | 6.84e5 | 7.93e5 | 1.66e6 | 1.77e6 | inactive
rdx | DRSC29820 | 4.51e5 | 3.79e5 | 1.48e6 | 1.30e6 | inactive
CG10734 | DRSC05998 | 75309 | 58844 | 1.90e6 | 1.90e6 | inactive
CG7884 | DRSC20065 | 1.29e5 | 1.25e5 | 5.91e5 | 4.03e5 | inactive
CG7884 | DRSC25412 | 5.02e5 | 6.98e5 | 5.08e5 | 7.85e5 | inactive

The list goes on (3 carried over from the part before).
Gene | dsRNA | firefly reporter light, replicate 1 | firefly reporter light, replicate 2 | Renilla control light, replicate 1 | Renilla control light, replicate 2 | activity call
CG10734 | DRSC05998 | 75309 | 58844 | 1.90e6 | 1.90e6 | inactive
CG7884 | DRSC20065 | 1.29e5 | 1.25e5 | 5.91e5 | 4.03e5 | inactive
CG7884 | DRSC25412 | 5.02e5 | 6.98e5 | 5.08e5 | 7.85e5 | inactive
asun | DRSC16733 | 42497 | 52517 | 2.67e5 | 3.81e5 | inactive
spel1 | DRSC03617 | 1.68e5 | 1.89e5 | 1.78e6 | 1.81e6 | inactive
spel1 | DRSC29609 | 3.43e5 | 4.10e5 | 8.10e5 | 8.10e5 | inactive
CG1273 | DRSC08291 | 1.53e5 | 1.61e5 | 1.90e6 | 1.94e6 | inactive
CG31454 | DRSC14365 | 62007 | 72940 | 1.21e6 | 1.24e6 | inactive
CG31454 | DRSC22801 | 5.16e5 | 1.14e6 | 1.10e6 | 1.85e6 | inactive
CG31454 | DRSC24377 | 4.51e5 | 5.04e5 | 6.50e5 | 6.35e5 | inactive
Tob | DRSC20294 | 73627 | 84886 | 6.78e5 | 8.62e5 | inactive
CG32066 | DRSC10652 | 5.80e5 | 7.83e5 | 7.17e5 | 9.18e5 | inactive
CG32066 | DRSC10653 | 2.11e5 | 1.48e5 | 2.30e6 | 1.63e6 | inactive
Art2 | DRSC00627 | 98764 | 55821 | 6.03e5 | 5.57e5 | inactive
Gr47b | DRSC05275 | 1.75e5 | 96258 | 2.96e5 | 3.30e5 | inactive
Srp54 | DRSC03442 | 6.48e5 | 6.00e5 | 1.58e6 | 1.48e6 | inactive
CG18128 | DRSC04304 | 2.41e5 | 2.32e5 | 1.62e6 | 1.59e6 | inactive
CG3652 | DRSC00624 | 1.52e5 | 1.28e5 | 1.06e6 | 1.05e6 | inactive
dpr18 | DRSC19606 | 8.52e5 | 7.03e5 | 3.40e6 | 2.61e6 | inactive
dome | DRSC19583 | 83499 | 18606 | 4.49e5 | 2.41e5 | inactive
dome | DRSC36979 | – | – | – | – | inactive
dome | DRSC36980 | – | – | – | – | inactive
